The list is a part of this screen's results and no random one: it gathers some chemical classes. Other doses and runs of a compound may be missing. T/C: endpoint of the treated group in % of that of the vehicle group. Schedule codes are those of the source, read here as Q, the interval in days (D) or hours (H), X, the number of doses. Some T/C values are followed by the survivors on the day toxicity was checked; without a count or a note in brackets, all were alive then. Some doses have a count of surviving animals in place of a T/C: the source files T/C as zero there, which appears to mark a toxic dose or a test without result, not a measured value. Survivors were counted at the toxicity check; its day is shown where the source gives one, and later deaths do not show.
Test system: nude mice, LX-1 lung xenograft intrarenal, tumor weight T/C
Assay: NCI In Vivo Anticancer Drug Screen. Data for tumor model Human Lung LX-1 Xenograft (intrarenal inoculation) in NU/NU Swiss (nude) mice
Details: T/C endpoint: mean tumor weight change, higher T/C = larger tumour; for T/C: evaluated on day 11
Protocol: The antitumor activity of compounds was measured in mice bearing transplantable tumors. Survival or tumor size were measured and the results are expressed as the measurement made in the treated group (T) divided by the measurement made in the vehicle treated control group (C). The tumor model used in this assay is Human Lung LX-1 Xenograft (intrarenal inoculation) in NU/NU Swiss (nude) mice

With `Cc1ccc(N(CCBr)CCBr)cc1` the T/C (dose: 18.75 mg/kg/injection, schedule: Q04DX003 (sc), vehicle: Klucel (hydroxypropylcellulose) (HPC)) was 94 % of control, the T/C (dose: 37.5 mg/kg/injection, schedule: Q04DX003 (sc), vehicle: Klucel (hydroxypropylcellulose) (HPC)) was 73 % of control and the survivor count (dose: 75.0 mg/kg/injection, schedule: Q04DX003 (sc), vehicle: Klucel (hydroxypropylcellulose) (HPC)) was 0 of 6 on day 11. For the same compound, the survivor count (dose: 150.0 mg/kg/injection, schedule: Q04DX003 (sc), vehicle: Klucel (hydroxypropylcellulose) (HPC)) was 0 of 6 on day 11.
In the case of `NC1CCCCC1.NP(=O)(O)N(CCCl)CCCl`, the T/C (dose: 150.0 mg/kg/injection, schedule: Q04DX003 (sc), vehicle: water) is reported as 133 % of control, the T/C (dose: 300.0 mg/kg/injection, schedule: Q04DX003 (sc), vehicle: water) is reported as 41 % of control and the survivor count (dose: 600.0 mg/kg/injection, schedule: Q04DX003 (sc), vehicle: water) is reported as 0 of 3 on day 11.
With `O=NN(CCSCCCl)C(=O)NC1CCCCC1` the T/C (dose: 300.0 mg/kg/injection, schedule: Q04DX003 (sc), vehicle: saline with Tween-80) was 82 % of control and the T/C (dose: 600.0 mg/kg/injection, schedule: Q04DX003 (sc), vehicle: saline with Tween-80) was 81 % of control.
`CC1=CC(=O)C(N(CCCl)CCCl)=CC1=O` was tested, and the T/C (dose: 0.75 mg/kg/injection, schedule: Q01DX010 (sc), vehicle: Klucel (hydroxypropylcellulose) (HPC)) was 41 % of control, the T/C (dose: 1.5 mg/kg/injection, schedule: Q01DX010 (sc), vehicle: Klucel (hydroxypropylcellulose) (HPC)) was 37 % of control [2 of 2 alive on day 11] and the T/C (dose: 3.0 mg/kg/injection, schedule: Q01DX010 (sc), vehicle: Klucel (hydroxypropylcellulose) (HPC)) was 40 % of control.
In the case of `ClCCN(CCCl)c1ccccc1`, the T/C (dose: 3.13 mg/kg/injection, schedule: Q01DX010 (sc), vehicle: saline with Tween-80) is reported as 120 % of control, the T/C (dose: 6.25 mg/kg/injection, schedule: Q01DX010 (sc), vehicle: saline with Tween-80) is reported as 89 % of control [2 of 2 alive on day 11] and the T/C (dose: 12.5 mg/kg/injection, schedule: Q01DX010 (sc), vehicle: saline with Tween-80) is reported as 122 % of control. For the same compound, the survivor count (dose: 25.0 mg/kg/injection, schedule: Q01DX010 (sc), vehicle: saline with Tween-80) was 0 of 3 on day 11.
With `C[N+](CCCl)(CCCl)Cc1ccc([N+](=O)[O-])cc1` the T/C (dose: 12.5 mg/kg/injection, schedule: Q04DX003 (sc), vehicle: saline) was 136 % of control, the T/C (dose: 25.0 mg/kg/injection, schedule: Q04DX003 (sc), vehicle: saline) was 104 % of control and the T/C (dose: 50.0 mg/kg/injection, schedule: Q04DX003 (sc), vehicle: saline) was 82 % of control.

Reference: PubChem BioAssay AID264 (DTP/NCI, 2004)
